# Assay results reported in PubChem BioAssay AID624291 (National Center for Advancing Translational Sciences (NCATS), 2012).
# Among all 350,000 compounds or so, about 220 (0.063%) were called active. Inconclusive results, whose numbers are uncertain, are shown with a selection of clear calls. The call rests on the fitted dose curve; in most records, active means well fitted activation curve with a large enough effect; inconclusive means small, poorly fitted or top-dose-only effect; inactive means no such curve, though single readings can be large or run the other way. Potencies beside an inconclusive call are fits to weak or partial responses and may not hold up.
# Assay: qHTS for Activators of Integrin-Mediated Alleviation for Muscular Dystrophy; further: nearly all actives have a fitted effect of over 60% in size;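 on activation: 100% = response of the positive control SU9516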
# Conditions: alpha7betagal myoblasts, beta-gal FDG fluorescence, 48 h; activation: at 38.3 µM (top of the series)
# Method in brief: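 Alpha7betagal+/- myoblasts (passage 13) were plated 16-24 hr, then exposed to compounds (1:260 dilution of DMSO stock) for 48 hours at 37C. After MPER lysis, β-galactosidase reporter activity was read as FDG fluorescence (ex 480/em 540) after 30 minutes.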
# Potency means the concentration at half of the fitted maximal effect.
SMILES,activation,Potency
Cc1nc(SCC(=O)O)n[nH]1,inactive: 1.01%,
Cc1cc2nc(-c3ccc[nH]c3=O)n(Cc3ccccc3F)c2cc1C,,"inconclusive: 5.62 µM [activator, partial curve, poor fit]"
O=C(CNC(=O)c1cccc(F)c1)N/N=C/C=C/c1ccccc1,,"inconclusive: 11.2 µM [activator, single point]"
Cc1ccc(-n2c(-c3ccco3)nc3nc4ccccc4nc32)cc1F,inactive: 5.99%,
COc1cc(CC(=O)Nc2cc(S(C)(=O)=O)ccc2Cl)cc(OC)c1OC,,"inconclusive: 3.55 µM [activator, partial curve, poor fit]"
Cc1cccc(C)c1N1C(=O)[C@@H]2C(c3ccccc3Cl)=NO[C@@H]2C1=O,,"inconclusive: 5.01 µM [activator, single point]"
CCN(CC)CCCNc1cc(C(F)(F)F)c(C#N)c2nc3ccccc3n12,,"inconclusive: 14.1 µM [activator, partial curve, poor fit]"
COc1ccc(CC(=O)N2CCc3cc(OC)c(OC)cc3C2C)c(OC)c1 (stereo not given),,"inconclusive: 28.2 µM [activator, single point]"
NS(=O)(=O)c1ccc(CNC(=O)/C=C/c2c(F)cccc2Cl)cc1,,"inconclusive: 5.01 µM [activator, single point]"
Cc1cc(OC(=O)c2ccccc2F)c([N+](=O)[O-])c(=O)[nH]1,,"inconclusive: 28.2 µM [activator, single point]"
O=C(CSc1ncccn1)NCCC1=CCCCC1,,"inconclusive: 0.501 µM [activator, full curve, poor fit]"
O=C(C[n+]1ccccc1)N/N=C/c1ccccc1C(F)(F)F,,"inconclusive: 2 µM [activator, partial curve, poor fit]"
CC(C)Sc1snnc1-c1ccccc1,,"inconclusive: 3.55 µM [activator, single point]"
Cc1ccc(CNC(=O)Cc2ccc(-n3cccc3)cc2)cc1,inactive: -16.3%,
CN(C(=O)C(Cl)Cl)C1CC2C=CC1C2 (stereo not given),,"inconclusive: 0.501 µM [activator, partial curve, poor fit]"
CCOC(=O)C(NC(C)=O)(NC(C)C)C(F)(F)F (stereo not given),,"inconclusive: 28.2 µM [activator, single point]"
Cc1ccc(C(=O)/C=C\Nc2ccc(C)c(C)c2)cc1,inactive: 25.6%,
Cc1ccc(S(=O)(=O)c2c(N)n(NC(=O)c3ccco3)c3nc4ccccc4nc23)cc1,,"inconclusive: 5.01 µM [activator, single point]"
O=C(/C(=C/c1ccc(Cl)cc1)c1nc2ccccc2[nH]1)c1cccs1,,"inconclusive: 28.2 µM [activator, single point]"
O=C(N/N=C/c1ccccc1F)c1ccccc1OCc1ccccc1,inactive: 8.81%,
CCCc1ccc(S(=O)(=O)Nc2ccc(C)c(NS(C)(=O)=O)c2)cc1,inactive: 10.2%,
O=C(CSc1nnc(COc2ccc(Cl)cc2)o1)N1c2ccccc2CCc2ccccc21,,"inconclusive: 1.12 µM [activator, partial curve, poor fit]"
Cc1cccc(N(CC(=O)NC2CCCC2)C(=O)c2csnn2)c1C,inactive: 3.49%,
CCN(C(=O)CN1CCN(c2ccccc2O)CC1)c1c(N)n(Cc2ccccc2)c(=O)[nH]c1=O,inconclusive: 11.6% [activator],

SMILES,activation,Potency
CCc1ccc(-c2cc(C(=O)N/N=C/c3ccco3)[nH]n2)cc1,inactive: -23.9%,
CCC(=O)c1ccc(Oc2nc3c(c(=O)n(C)c(=O)n3C)n2CC)cc1,,"inconclusive: 5.01 µM [activator, single point]"
Cc1cc(NC(=O)CSc2nnc(-c3ccc(O)cc3)o2)no1,,"inconclusive: 25.1 µM [activator, single point]"
CCOc1ccc(NC(=O)Nc2ccc(Br)cn2)cc1,,"inconclusive: 1.41 µM [activator, partial curve, poor fit]"
O=C(O)CC(CC(=O)Nc1ccc(C(=O)O)cc1)c1ccccc1 (stereo not given),,"inconclusive: 7.94 µM [activator, partial curve, poor fit]"
Cc1oc2c(Cl)c(Cl)c(O)c(CN(C)C)c2c1C(=O)c1ccc(Cl)cc1,,"inconclusive: 0.447 µM [activator, partial curve, poor fit]"
CCOc1ccccc1C(=O)N1CCN(C(c2ccccc2)c2ccccc2)CC1,,"inconclusive: 11.2 µM [activator, single point]"
Cc1ccc(S(=O)(=O)N2CCC(C(=O)N[C@@H](C)C(=O)Nc3ccc(F)cc3)CC2)cc1,,"inconclusive: 7.08 µM [activator, partial curve, poor fit]"
O=C(Nc1ccccc1)C1=C(c2ccccc2)S(=O)(=O)CCS1(=O)=O,inactive: -65.2%,
Nc1nc(-c2ccco2)nn1S(=O)(=O)c1ccccc1,inactive: -13.6%,
O=[N+]([O-])c1ccc(NC(=S)NCCc2ccc(Cl)cc2)cc1,inactive: -48.2%,
CN(C)C(=O)C1C2NC(=S)N(c3cccc(Cl)c3)C1(C)Oc1ccc(Cl)cc12 (stereo not given),,"inconclusive: 2.82 µM [activator, single point]"
S=c1nc2c(n[nH]1)c1ccccc1n2CCc1ccccc1,inactive: 15.7%,
CC(C)(C)C(=O)C1=C(O)C(=O)N(Cc2ccccc2)C1c1ccccc1Cl (stereo not given),,"inconclusive: 0.447 µM [activator, full curve, poor fit]"
CCOc1ccc(C(=O)NC(Cc2ccccc2)C(=O)OC)cc1 (stereo not given),inactive: 13%,
CCOC(=O)c1cnc(-n2nc(C)cc2C)nc1NC1CCCCC1,,"inconclusive: 1 µM [activator, partial curve, poor fit]"
O=C(O)c1c(C(=O)O)c(-c2ccc(Cl)c(Cl)c2)n2c1CSC2,,"inconclusive: 12.6 µM [activator, single point]"
COCCNc1ccc(N2C(=O)C3CCCCC3C2=O)cc1[N+](=O)[O-] (stereo not given),,"inconclusive: 5.62 µM [activator, partial curve, poor fit]"
O=C(Nc1nc2ccccc2[nH]1)Nc1ccccc1F,,"inconclusive: 3.55 µM [activator, partial curve, poor fit]"
O=C(CCl)Nc1ccc(S(=O)(=O)NC2=NCCCCC2)cc1,inactive: -51.9%,
Cc1ccc(OCCNC(=O)c2ccc(C)cc2)cc1,,"inconclusive: 3.55 µM [activator, single point]"
Cc1cc(-c2ccc(C)c(S(=O)(=O)NCc3cccc(Br)c3)c2)on1,,"inconclusive: 1.41 µM [activator, partial curve, poor fit]"
O=C(Cc1ccccc1)NC(=S)Nc1cc(C(F)(F)F)ccc1Cl,inactive: -11.7%,
O=C(CCN1C(=O)/C(=C/c2ccccc2)SC1=S)NC1CCS(=O)(=O)C1 (stereo not given),,"inconclusive: 2.24 µM [activator, partial curve, poor fit]"

# Three neighbouring entries from above:
SMILES,activation,Potency
COCCNc1ccc(N2C(=O)C3CCCCC3C2=O)cc1[N+](=O)[O-] (stereo not given),,"inconclusive: 5.62 µM [activator, partial curve, poor fit]"
O=C(Nc1nc2ccccc2[nH]1)Nc1ccccc1F,,"inconclusive: 3.55 µM [activator, partial curve, poor fit]"
O=C(CCl)Nc1ccc(S(=O)(=O)NC2=NCCCCC2)cc1,inactive: -51.9%,

# Continued:

SMILES,activation,Potency
Cc1nc([N+](=O)[O-])cn1CC(=O)c1ccc(F)cc1,,"inconclusive: 28.2 µM [activator, single point]"
CCOC(=O)C1CCCN(C(=O)c2cccc(S(=O)(=O)N3CCOCC3)c2)C1 (stereo not given),,"inconclusive: 5.01 µM [activator, single point]"
CCOC(=O)C1CCCN(C(=O)c2ccccc2NC(=O)C2=C(C)OCCS2)C1 (stereo not given),inconclusive: 22% [activator],
CCC(=O)c1ccccc1OCCCCn1cncn1,,"inconclusive: 3.16 µM [activator, single point]"
CC1CCN(C(=O)c2ccc([N+](=O)[O-])o2)CC1,inactive: -38.4%,
COc1ccc(NC(=O)COC(=O)Cn2nnc3ccccc32)cc1,inactive: 7.33%,
C=CCC(=O)N1CCC(n2nccc2NC(=O)CCOc2ccccc2)CC1,,"inconclusive: 17.8 µM [activator, partial curve, poor fit]"
N/C(=N\OC(=O)Cc1ccc([N+](=O)[O-])cc1)c1cccc(Br)c1,,"inconclusive: 12.6 µM [activator, single point]"
Cc1nn(CC(=O)N2CCCc3ccccc32)c(C)c1[N+](=O)[O-],inconclusive: -9.56% [activator],
COc1ccc(NC(=O)c2sc3nc(-c4cccnc4)ccc3c2N)cc1OC,,"inconclusive: 6.31 µM [activator, partial curve, poor fit]"
CC(C)(C)c1ccc(C(=O)NCC(=O)N2CCCC2)cc1,inactive: -6.19%,
O=C(CCCn1cnc([N+](=O)[O-])n1)Nc1ccc(Cl)cc1Cl,,"inconclusive: 5.62 µM [activator, single point]"
S=c1[nH]nc(COc2ccccc2)n1C1CCCCC1,inactive: 14%,
O=C(NC(=S)Nc1ccc(Cl)c(C(=O)O)c1)c1cccc(COc2ccccc2)c1,,"inconclusive: 28.2 µM [activator, single point]"
CCOC(=O)c1cccc(NC(=O)/C=C/c2ccc3c(c2)OCO3)c1,inactive: -12.1%,
N#C/C(=N/Nc1ccc(OC(F)(F)F)cc1)C(N)=S,inactive: -65.3%,
Cc1ccc(NC(=S)N2CCC(c3ccc(C)cc3)C2)cc1 (stereo not given),,"inconclusive: 1.26 µM [activator, single point]"
CCc1ccc(CCC(=O)Nc2ccc(C(=O)O)cc2)o1,,"inconclusive: 3.16 µM [activator, single point]"
Oc1[nH]c2ccccc2c1N=NC(=S)N1CCOCC1,inactive: -59.2%,
CCCCN(CC(O)COc1cccc(C)c1)CC(O)COc1cccc(C)c1 (stereo not given),,"inconclusive: 28.2 µM [activator, single point]"
COc1ccc(C(NC(=O)c2cc(OC)ccc2OC)c2ccccc2)cc1 (stereo not given),,"inconclusive: 5.01 µM [activator, single point]"
CCOC(=O)N1CCN(C(=O)CNC(=O)c2nn(-c3ccc(OC)c(OC)c3)c(=O)c3ccccc23)CC1,,"inconclusive: 2.24 µM [activator, partial curve, poor fit]"
